Assay results taken from paper PMC9859758.
Results are given in words; binding and its absence hold for the method and conditions named. Some results given as binding are weak or reduced against the parent protein; the word gives no strength. Tags and fused reporters may be left off the sequences shown.

Experiments:
Experiment in all cases: co-purification (Ni2+ affinity chromatography, then SEC); His-tagged Kar9 and untagged Bim1 expressed separately in bacteria, mixed before lysis in 20 mM Tris-HCl pH 7.5, 500 mM NaCl; Ni2+-Sepharose at 4 °C, then Superdex size exclusion
[1] = biological target: T1, Full-length N-terminally hexa-histidine-tagged S. cerevisiae Kar9-α^− (Phe292Ala/Leu347Ala) (S. cerevisiae) (UniProt P32526)
T1 sequence: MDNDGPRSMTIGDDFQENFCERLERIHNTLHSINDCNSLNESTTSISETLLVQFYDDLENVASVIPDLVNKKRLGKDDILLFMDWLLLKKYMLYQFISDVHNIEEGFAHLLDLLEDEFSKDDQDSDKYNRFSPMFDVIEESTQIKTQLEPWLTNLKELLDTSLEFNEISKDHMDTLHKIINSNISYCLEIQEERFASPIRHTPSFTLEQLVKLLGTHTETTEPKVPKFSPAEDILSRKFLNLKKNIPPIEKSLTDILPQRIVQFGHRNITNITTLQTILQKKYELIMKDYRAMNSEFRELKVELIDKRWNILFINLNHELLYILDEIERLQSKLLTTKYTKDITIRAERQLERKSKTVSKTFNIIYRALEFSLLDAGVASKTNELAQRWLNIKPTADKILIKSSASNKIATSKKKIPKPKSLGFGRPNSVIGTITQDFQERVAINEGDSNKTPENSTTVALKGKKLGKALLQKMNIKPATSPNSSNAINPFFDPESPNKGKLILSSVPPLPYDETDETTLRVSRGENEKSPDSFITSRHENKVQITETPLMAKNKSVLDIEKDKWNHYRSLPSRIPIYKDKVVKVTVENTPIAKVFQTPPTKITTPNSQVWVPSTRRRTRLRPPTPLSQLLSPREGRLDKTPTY

[2] = biological target: T2, Full-length N-terminally hexa-histidine-tagged S. cerevisiae Kar9-αβγ^− (all three self-association interfaces mutated) (S. cerevisiae) (UniProt P32526)
T2 sequence: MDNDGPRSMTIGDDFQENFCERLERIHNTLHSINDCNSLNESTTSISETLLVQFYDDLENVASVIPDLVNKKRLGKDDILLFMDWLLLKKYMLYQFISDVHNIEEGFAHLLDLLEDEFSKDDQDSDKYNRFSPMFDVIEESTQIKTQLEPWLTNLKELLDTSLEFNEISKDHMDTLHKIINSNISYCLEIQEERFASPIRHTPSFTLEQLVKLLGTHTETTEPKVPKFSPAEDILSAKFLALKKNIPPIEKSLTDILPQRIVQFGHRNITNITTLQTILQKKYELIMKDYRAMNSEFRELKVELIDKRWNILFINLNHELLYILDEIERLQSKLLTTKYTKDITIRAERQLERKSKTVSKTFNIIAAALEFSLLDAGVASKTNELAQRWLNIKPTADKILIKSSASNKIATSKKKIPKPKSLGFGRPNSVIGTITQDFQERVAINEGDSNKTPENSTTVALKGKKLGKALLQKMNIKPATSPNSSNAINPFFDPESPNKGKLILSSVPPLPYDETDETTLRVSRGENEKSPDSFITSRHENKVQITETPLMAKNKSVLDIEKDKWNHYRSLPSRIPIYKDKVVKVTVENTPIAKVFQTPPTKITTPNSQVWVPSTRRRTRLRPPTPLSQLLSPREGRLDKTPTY

[3] = biological target: T3, Full-length N-terminally hexa-histidine-tagged S. cerevisiae Kar9-β^− (Arg237Ala/Asn241Ala) (S. cerevisiae) (UniProt P32526)
T3 sequence: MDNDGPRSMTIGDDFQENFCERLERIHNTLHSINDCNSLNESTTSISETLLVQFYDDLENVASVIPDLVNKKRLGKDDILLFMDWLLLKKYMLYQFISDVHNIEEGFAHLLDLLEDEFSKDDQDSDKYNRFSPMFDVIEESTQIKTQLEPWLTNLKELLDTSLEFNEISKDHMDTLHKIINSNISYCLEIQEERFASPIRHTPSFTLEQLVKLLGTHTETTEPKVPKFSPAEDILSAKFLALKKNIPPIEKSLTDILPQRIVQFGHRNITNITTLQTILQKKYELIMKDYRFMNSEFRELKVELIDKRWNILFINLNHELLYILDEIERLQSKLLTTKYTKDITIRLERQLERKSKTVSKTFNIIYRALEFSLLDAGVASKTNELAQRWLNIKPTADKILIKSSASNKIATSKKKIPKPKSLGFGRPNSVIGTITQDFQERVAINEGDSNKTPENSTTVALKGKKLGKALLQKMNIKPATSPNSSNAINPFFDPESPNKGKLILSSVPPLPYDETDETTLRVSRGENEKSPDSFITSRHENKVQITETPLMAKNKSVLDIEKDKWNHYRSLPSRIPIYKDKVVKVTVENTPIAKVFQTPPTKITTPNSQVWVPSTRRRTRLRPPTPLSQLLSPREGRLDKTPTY

[4] = biological target: T4, Full-length N-terminally hexa-histidine-tagged S. cerevisiae Kar9-γ^− (Tyr366Ala/Arg367Ala) (S. cerevisiae) (UniProt P32526)
T4 sequence: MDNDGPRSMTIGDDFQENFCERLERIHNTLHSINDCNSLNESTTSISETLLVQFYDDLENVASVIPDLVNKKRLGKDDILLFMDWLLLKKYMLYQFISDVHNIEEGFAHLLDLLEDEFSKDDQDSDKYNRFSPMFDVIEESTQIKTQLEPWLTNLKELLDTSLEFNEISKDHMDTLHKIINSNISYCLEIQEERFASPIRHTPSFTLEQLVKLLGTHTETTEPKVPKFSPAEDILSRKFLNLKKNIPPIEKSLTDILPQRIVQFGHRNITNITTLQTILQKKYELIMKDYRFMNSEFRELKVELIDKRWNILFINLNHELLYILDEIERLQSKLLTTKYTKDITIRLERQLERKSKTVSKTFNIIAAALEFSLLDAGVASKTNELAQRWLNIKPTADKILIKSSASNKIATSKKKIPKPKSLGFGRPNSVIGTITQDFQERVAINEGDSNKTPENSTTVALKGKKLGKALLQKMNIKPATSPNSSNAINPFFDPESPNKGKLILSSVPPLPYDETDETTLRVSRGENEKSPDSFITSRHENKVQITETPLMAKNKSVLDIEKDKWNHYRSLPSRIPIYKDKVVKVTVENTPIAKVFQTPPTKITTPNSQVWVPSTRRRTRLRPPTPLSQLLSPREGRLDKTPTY

[5] = biological target: T5, Full-length wild-type N-terminally hexa-histidine-tagged S. cerevisiae Kar9 (S. cerevisiae) (UniProt P32526)
T5 sequence: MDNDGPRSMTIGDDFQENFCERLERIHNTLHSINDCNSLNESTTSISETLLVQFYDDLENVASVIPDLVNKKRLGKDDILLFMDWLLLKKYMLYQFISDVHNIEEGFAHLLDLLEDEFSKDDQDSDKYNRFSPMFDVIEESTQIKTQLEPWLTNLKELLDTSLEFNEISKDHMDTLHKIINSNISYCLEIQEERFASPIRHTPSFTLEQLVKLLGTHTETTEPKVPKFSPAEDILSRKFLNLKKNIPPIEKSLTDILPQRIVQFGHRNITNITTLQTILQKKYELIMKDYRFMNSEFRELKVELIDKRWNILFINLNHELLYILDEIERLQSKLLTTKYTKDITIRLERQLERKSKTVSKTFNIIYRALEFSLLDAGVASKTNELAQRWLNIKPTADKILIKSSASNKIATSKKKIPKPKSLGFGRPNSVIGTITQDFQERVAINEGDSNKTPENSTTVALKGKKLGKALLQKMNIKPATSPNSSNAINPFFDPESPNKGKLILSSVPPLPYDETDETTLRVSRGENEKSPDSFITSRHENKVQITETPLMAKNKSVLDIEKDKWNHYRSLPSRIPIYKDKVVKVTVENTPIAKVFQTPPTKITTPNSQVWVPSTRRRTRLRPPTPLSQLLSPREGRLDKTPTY

Measured: binding

B1: Full-length S. cerevisiae Bim1, untagged (protein, UniProt P40013 1-344)
chain: MSAGIGESRTELLTWLNGLLNLNYKKIEECGTGAAYCQIMDSIYGDLPMNRVKFNATAEYEFQTNYKILQSCFSRHGIEKTVYVDKLIRCKFQDNLEFLQWLKKHWIRHKDESVYDPDARRKYRPIITNNSATKPRTVSNPTTAKRSSSTGTGSAMSGGLATRHSSLGINGSRKTSVTQGQLVAIQAELTKSQETIGSLNEEIEQYKGTVSTLEIEREFYFNKLRDIEILVHTTQDLINEGVYKFNDETITGHGNGNGGALLRFVKKVESILYATAEGFEMNDGEDELNDKNLGEHGTVPNQGGYANSNGEVNGNEGSNHDVIMQNDEGEVGVSNNLIIDEETF
binds: all assays above
